These results are taken from PMC11759936.

Assay [1] deals with OsHsp40-1 (CoIP construct) (rice (Oryza sativa L.)). The assay can be described thus: co-IP; coimmunoprecipitation (CoIP); details in the supplementary data.
Assay [2] addresses OsHsp40-1 (LCI fusion) (rice (Oryza sativa L.)). The assay can be described thus: split reporter; firefly luciferase complementation imaging (LCI) in Nicotiana benthamiana leaves.
For assay [3], the target named is OsHsp40-1 (BiFC fusion) (rice (Oryza sativa L.)). The assay can be described thus: split reporter; BiFC in rice protoplasts; 1300S-YN + 2300S-YC as negative control.
The target of assay [4] is GST-OsHsp40-1 (rice (Oryza sativa L.)). The assay can be described thus: pull-down; GST pull-down of OsHsp40-1 with OsGBSSI or OsPPDKB; which partner carried GST is not told.

Results are given in words; binding and its absence hold for the method and conditions named. In cells and extracts the contact can be indirect. A result given as binding can be weak or reduced; the word gives no strength. For some assays here: Where a sequence is shown, tags or fusion partners need not be part of it.

B1: OsGBSSI (CoIP construct) (enzyme, UniProt Q0DEV5 78-609)
chain: ATGAGMNVVFVGAEMAPWSKTGGLGDVLGGLPPAMAANGHRVMVISPRYDQYKDAWDTSVVAEIKVADRYERVRFFHCYKRGVDRVFIDHPSFLEKVWGKTGEKIYGPDTGVDYKDNQMRFSLLCQAALEAPRILNLNNNPYFKGTYGEDVVFVCNDWHTGPLASYLKNNYQPNGIYRNAKVAFCIHNISYQGRFAFEDYPELNLSERFRSSFDFIDGYDTPVEGRKINWMKAGILEADRVLTVSPYYAEELISGIARGCELDNIMRLTGITGIVNGMDVSEWDPSKDKYITAKYDATTAIEAKALNKEALQAEAGLPVDRKIPLIAFIGRLEEQKGPDVMAAAIPELMQEDVQIVLLGTGKKKFEKLLKSMEEKYPGKVRAVVKFNAPLAHLIMAGADVLAVPSRFEPCGLIQLQGMRYGTPCACASTGGLVDTVIEGKTGFHMGRLSVDCKVVEPSDVKKVAATLKRAIKVVGTPAYEEMVRNCMNQDLSWKGPAKNWENVLLGLGVAGSAPGIEGDEIAPLAKENVAAP
With B1, the binding result in assay [1] is recorded as “binds”.

B2: OsGBSSI (LCI fusion) (enzyme, UniProt Q0DEV5 78-609)
chain: B1 chain
On to B2, for which the binding result in assay [2] was “binds”.

B3: OsGBSSI (BiFC fusion) (enzyme, UniProt Q0DEV5 78-609)
chain: B1 chain
As for B3, in assay [3], the binding result is listed as “binds”.

B4: His-OsGBSSI (enzyme, UniProt Q0DEV5 78-609)
chain: B1 chain
For B4, the binding result in assay [4] is “binds”.

B5: OsPPDKB (CoIP construct) (enzyme, UniProt Q6AVA8 72-947)
chain: TTKKRVFHFGKGKSEGNKAMKDLLGGKGANLAEMASIGLSVPPGFTVSTEACQQYQAAGKTLPAGLWEEIVEGLQWVEEYMAARLGDPARPLLLSVRSGAAVSMPGMMDTVLNLGLNDEVAAGLAAKSGDRFAYDSYRRFLDMFGNVVMDIPHALFEEKLEAMKAVKGLHNDTDLTATDLKELVAQYKDVYVEAKGEPFPSDPKKQLQLAVLAVFNSWDSPRAIKYRSINKITGLKGTAVNVQTMVFGNMGNTSGTGVLFTRNPSTGEKKLYGEFLVNAQGEDVVAGIRTPEDLDAMRDHMPEPYEELVENCKILESHYKEMMDIEFTVQENRLWMLQCRTGKRTGKGAVKIAVDMVNEGLVERRTALKMVEPGHLDQLLHPQFENPSGYKDKVIATGLPASPGAAVGQIVFTAEDAEAWHAQGKDVILVRTETSPEDVGGMHAAVGILTARGGMTSHAAVVARGWGKCCVSGCSSVRVNDASKIVVIEDKALHEGEWLSLNGSTGEVIIGKQPLCPPALSGDLETFMSWVDEVRKLKVMANADTPEDATTARQNGAEGIGLCRTEHMFFASDERIKAVRQMIMASSLELRQKALDRLLPYQRSDFEGIFRAMDGLPVTIRLLDPPLHEFLPEGHVEDMVRELCSETGAAQDDVLARVEKLSEVNPMLGFRGCRLGISYPELTEMQARAIFEAAITMTNQGIQVFPEIMVPLVGTPQELGHQVDVIRQIANKVFTDMGKTIGYKVGTMIEIPRAALVADEIAEQAEFFSFGTNDLTQMTFGYSRDDVGKFLPIYLSQGILQHDPFEVLDQRGVGELVKLATERGRKARPNLKVGICGEHGGEPLSVAFFAKAGLDYVSCSPFRVPIARLAAAQVLL
In the case of B5, the binding entry in assay [1] is given as “binds”.

B6: His-OsPPDKB (enzyme, UniProt Q6AVA8 72-947)
chain: B5 chain
In the case of B6, in assay [4], the binding result is recorded as “binds”.

B7: OsPPDKB (LCI fusion) (enzyme, UniProt Q6AVA8 72-947)
chain: B5 chain
Turning to B7, the binding entry in assay [2] is given as “binds”.

B8: OsPPDKB (BiFC fusion) (enzyme, UniProt Q6AVA8 72-947)
chain: B5 chain
As for B8, the binding result in assay [3] is “binds”.
